Laboratory results taken from the supplement of paper PMC4604168 (melanoma cell lines).
Some of the results follow. Many values rest on one well or one pass, so single values are uncertain.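 Imaging used 1,536-well plates; nuclei positive for cleaved PARP by antibody were divided by total DNA-stained nuclei to yield the apoptosis fraction. Doses for screening kept most cells viable, and cell lines differ markedly in resting and induced cleaved-PARP levels.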

How the values were obtained:
Assay in all cases: cleaved PARP positive nuclei fraction relative to DMSO control; melanoma cells; higher = more apoptosis
Details in all cases: library dose: low library concentration; 72 h
[1] = tested on: MZ2-MEL
[2] = tested on: MeWo
[3] = tested on: RPMI7951
[4] = tested on: RVH-421
[5] = tested on: SkMel28
[6] = tested on: SkMel2
[7] = tested on: SkMel30
[8] = tested on: SkMel5
[9] = tested on: UACC257
[10] = tested on: UACC62
[11] = tested on: WM115
[12] = tested on: WM1716
[13] = tested on: WM1745
[14] = tested on: WM3526
[15] = tested on: WM3619
[16] = tested on: WM451Lu

Row | SMILES | cleaved PARP positive nuclei fraction [1] [%] | cleaved PARP positive nuclei fraction [2] [%] | cleaved PARP positive nuclei fraction [3] [%] | cleaved PARP positive nuclei fraction [4] [%] | cleaved PARP positive nuclei fraction [5] [%] | cleaved PARP positive nuclei fraction [6] [%] | cleaved PARP positive nuclei fraction [7] [%] | cleaved PARP positive nuclei fraction [8] [%] | cleaved PARP positive nuclei fraction [9] [%] | cleaved PARP positive nuclei fraction [10] [%] | cleaved PARP positive nuclei fraction [11] [%] | cleaved PARP positive nuclei fraction [12] [%] | cleaved PARP positive nuclei fraction [13] [%] | cleaved PARP positive nuclei fraction [14] [%] | cleaved PARP positive nuclei fraction [15] [%] | cleaved PARP positive nuclei fraction [16] [%]
1 | CC1(C)NC(=O)N(c2ccc([N+](=O)[O-])c(C(F)(F)F)c2)C1=O [nilutamide] + CN(C)S(=O)(=O)c1ccc2c(c1)/C(=C/c1cc3c([nH]1)CCCC3)C(=O)N2 [SU6656] (first compound 1 µM, partner dose 0.4 µM) | 217 | 216 | 210 | 110 | 62.4 | 73.6 | 57.3 | 138 | 84.2 | 92.5 | 100 | 12.5 | 84.2 | 60.7 | 81.6 | 325
2 | OCc1c[nH]c2ccccc12 [Indole-3-carbinol] + Cn1cc(/C=C2\C(=O)Nc3cccnc32)c2ccccc21 [GW441756] (first compound 0.8 µM, partner dose 0.4 µM) | 27.4 | 158 | 70.4 | 39.5 | 190 | 35.1 | 45.8 | 86.8 | 115 | 88.6 | 72.1 | 71.6 | 169 | 213 | 88.7 | 67.3
3 | CC1(C)NC(=O)N(c2ccc([N+](=O)[O-])c(C(F)(F)F)c2)C1=O [nilutamide] + C=CCn1c(=O)c2cnc(Nc3ccc(N4CCN(C)CC4)cc3)nc2n1-c1cccc(C(C)(C)O)n1 [MK1775] (first compound 1 µM, partner dose 0.02 µM) | 57.3 | 33.5 | 108 | 110 | 121 | 79.4 | 63.7 | 99.9 | 109 | 164 | 197 | 128 | 108 | 52.8 | 104 | 103
4 | OCc1c[nH]c2ccccc12 [Indole-3-carbinol] + O=C(O)c1ccc(-c2c[nH]c3ncc(-c4ccccc4)cc23)cc1C1CCCC1 [GSK650394] (first compound 0.8 µM, partner dose 0.16 µM) | 121 | 49.2 | 93.1 | 56.4 | 106 | 115 | 64.3 | 300 | 159 | 70.8 | 90.7 | 88.7 | 95.2 | 54.6 | 110 | 57.2
5 | Clc1ccc(Nc2nnc(Cc3ccncc3)c3ccccc23)cc1 [vatalanib] + CO[C@@H]1[C@H](N(C)C(=O)c2ccccc2)C[C@H]2O[C@]1(C)n1c3ccccc3c3c4c(c5c6ccccc6n2c5c31)C(=O)NC4 [Midostaurin] (first compound 2 µM, partner dose 0.08 µM) | 265 | 147 | 52.7 | 93 | 133 | 119 | 56.4 | 90.6 | 130 | 183 | 119 | 225 | 112 | 64 | 150 | 544
6 | Cc1cc(N2CCOCC2)cc2[nH]c(-c3c(NC[C@@H](O)c4cccc(Cl)c4)cc[nH]c3=O)nc12 + C[C@@H]1CCN(C(=O)CC#N)C[C@@H]1N(C)c1ncnc2[nH]ccc12 [CP690550] (first compound 0.2 µM, partner dose 1 µM) | 128 | 50.2 | 126 | 138 | 108 | 36.6 | 71.1 | 128 | 121 | 66.9 | 66.8 | 99.4 | 132 | 23.3 | 176 | 166
7 | Cc1cc(N2CCOCC2)cc2[nH]c(-c3c(NC[C@@H](O)c4cccc(Cl)c4)cc[nH]c3=O)nc12 + NCC(=O)Nc1ccc(-n2nc(C(F)(F)F)cc2-c2ccc3c(ccc4ccccc43)c2)cc1 [OSU03012] (first compound 0.2 µM, partner dose 1 µM) | 119 | 183 | 84.4 | 40.6 | 280 | 254 | 181 | 148 | 53.4 | 144 | 227 | 100 | 113 | 105 | 93.6 | 173
8 | C=CCNC1=C2C[C@@H](C)C[C@H](OC)[C@H](O)[C@@H](C)/C=C(\C)[C@H](OC(N)=O)[C@@H](OC)/C=C\C=C(/C)C(=O)NC(=CC1=O)C2=O [Tanespimycin] + COc1cc(Nc2ncc(F)c(Nc3ccc4c(n3)NC(=O)C(C)(C)O4)n2)cc(OC)c1OC [Tamatinib] (first compound 0.002 µM, partner dose 0.4 µM) | 132 | 98.7 | 176 | 23.8 | 63.4 | 66.3 | 219 | 30.7 | 271 | 222 | 189 | 124 | 145 | 133 | 116 | 120
9 | Cn1nnc2c(C(N)=O)ncn2c1=O [temozolomide] + OCCn1cc(-c2cnc3nnn(Cc4ccc5ncccc5c4)c3n2)cn1 [PF04217903] (first compound 2 µM, partner dose 1 µM) | 121 | 111 | 69.5 | 99.4 | 96.8 | 92.7 | 74.3 | 92 | 78.9 | 64.3 | 68.9 | 105 | 109 | 62.1 | 114 | 78.4
10 | O=C(CCCCCCC(=O)Nc1ccccc1)NO [vorinostat] + CC1(C)NC(=O)N(c2ccc([N+](=O)[O-])c(C(F)(F)F)c2)C1=O [nilutamide] (first compound 0.08 µM, partner dose 1 µM) | 116 | 138 | 87.2 | 90.7 | 124 | 93.2 | 58.9 | 145 | 358 | 41.1 | 82.5 | 132 | 110 | 60.9 | 76.7 | 121
11 | Cn1nnc2c(C(N)=O)ncn2c1=O [temozolomide] + C=CCn1c(=O)c2cnc(Nc3ccc(N4CCN(C)CC4)cc3)nc2n1-c1cccc(C(C)(C)O)n1 [MK1775] (first compound 2 µM, partner dose 0.02 µM) | 112 | 69.7 | 153 | 83 | 120 | 88.5 | 80.3 | 141 | 91.2 | 202 | 197 | 218 | 112 | 58.8 | 107 | 88.7
12 | O=C(CCCCCCC(=O)Nc1ccccc1)NO [vorinostat] + CN(NC(=O)CC(=O)NN(C)C(=S)c1ccccc1)C(=S)c1ccccc1 [STA4783] (first compound 0.08 µM, partner dose 0.006 µM) | 33 | 72.7 | 52.4 | 44.7 | 249 | 56.7 | 83.7 | 345 | 130 | 110 | 69.4 | 367 | 353 | 77.8 | 109 | 591
13 | Cn1nnc2c(C(N)=O)ncn2c1=O [temozolomide] + Cc1cc(N2CCOCC2)cc2[nH]c(-c3c(NC[C@@H](O)c4cccc(Cl)c4)cc[nH]c3=O)nc12 [BMS536924] (first compound 2 µM, partner dose 0.2 µM) | 219 | 75.4 | 117 | 68.9 | 33.4 | 41.1 | 320 | 139 | 86.1 | 53.7 | 67.6 | 227 | 109 | 107 | 111 | 172
14 | O=C(CCCCCCC(=O)Nc1ccccc1)NO [vorinostat] + NC(=O)Nc1cc(-c2cccc(F)c2)sc1C(=O)N[C@H]1CCCNC1 [AZD7762] (first compound 0.08 µM, partner dose 0.02 µM) | 149 | 209 | 133 | 97.8 | 69 | 100 | 67.3 | 63.3 | 53.2 | 370 | 75 | 184 | 74.3 | 81 | 179 | 81.7
15 | NC(=O)Nc1cc(-c2cccc(F)c2)sc1C(=O)N[C@H]1CCCNC1 + OCCn1cc(-c2cnc3nnn(Cc4ccc5ncccc5c4)c3n2)cn1 [PF04217903] (first compound 0.02 µM, partner dose 1 µM) | 72.7 | 17.3 | 74.6 | 54.6 | 21.3 | 104 | 138 | 40.4 | 31.3 | 64.2 | 84.6 | 148 | 102 | 74.7 | 258 | 61.1
16 | Clc1ccc(Nc2nnc(Cc3ccncc3)c3ccccc23)cc1 [vatalanib] + COc1ccc(-c2ccc3c(N4CCOCC4)nc(N4C[C@@H](C)O[C@@H](C)C4)nc3n2)cc1CO [KU0063794] (first compound 2 µM, partner dose 0.02 µM) | 86.4 | 60.5 | 80.5 | 92.7 | 239 | 17 | 46.3 | 63 | 154 | 45.9 | 118 | 183 | 97.7 | 64.7 | 77.1 | 143
17 | Cn1c(Nc2ccc(C(F)(F)F)cc2)nc2cc(Oc3ccnc(-c4ncc(C(F)(F)F)[nH]4)c3)ccc21 + O=C(CCCCCCC(=O)Nc1ccccc1)NO [vorinostat] (first compound 0.08 µM, partner dose 0.08 µM) | 136 | 61.8 | 88.9 | 212 | 154 | 96 | 132 | 47.3 | 760 | 214 | 831 | 171 | 122 | 109 | 177 | 91.1
18 | OCc1c[nH]c2ccccc12 [Indole-3-carbinol] + C[C@@H]1CCN(C(=O)CC#N)C[C@@H]1N(C)c1ncnc2[nH]ccc12 [CP690550] (first compound 0.8 µM, partner dose 1 µM) | 96.4 | 98.3 | 45.3 | 44.7 | 56.2 | 60.3 | 58.2 | 69.9 | 114 | 199 | 89 | 82.4 | 98.5 | 54.3 | 107 | 60.3

Two entries drawn at random from the list so far, as already listed:
Row | SMILES | cleaved PARP positive nuclei fraction [1] [%] | cleaved PARP positive nuclei fraction [2] [%] | cleaved PARP positive nuclei fraction [3] [%] | cleaved PARP positive nuclei fraction [4] [%] | cleaved PARP positive nuclei fraction [5] [%] | cleaved PARP positive nuclei fraction [6] [%] | cleaved PARP positive nuclei fraction [7] [%] | cleaved PARP positive nuclei fraction [8] [%] | cleaved PARP positive nuclei fraction [9] [%] | cleaved PARP positive nuclei fraction [10] [%] | cleaved PARP positive nuclei fraction [11] [%] | cleaved PARP positive nuclei fraction [12] [%] | cleaved PARP positive nuclei fraction [13] [%] | cleaved PARP positive nuclei fraction [14] [%] | cleaved PARP positive nuclei fraction [15] [%] | cleaved PARP positive nuclei fraction [16] [%]
10 | O=C(CCCCCCC(=O)Nc1ccccc1)NO [vorinostat] + CC1(C)NC(=O)N(c2ccc([N+](=O)[O-])c(C(F)(F)F)c2)C1=O [nilutamide] (first compound 0.08 µM, partner dose 1 µM) | 116 | 138 | 87.2 | 90.7 | 124 | 93.2 | 58.9 | 145 | 358 | 41.1 | 82.5 | 132 | 110 | 60.9 | 76.7 | 121
16 | Clc1ccc(Nc2nnc(Cc3ccncc3)c3ccccc23)cc1 [vatalanib] + COc1ccc(-c2ccc3c(N4CCOCC4)nc(N4C[C@@H](C)O[C@@H](C)C4)nc3n2)cc1CO [KU0063794] (first compound 2 µM, partner dose 0.02 µM) | 86.4 | 60.5 | 80.5 | 92.7 | 239 | 17 | 46.3 | 63 | 154 | 45.9 | 118 | 183 | 97.7 | 64.7 | 77.1 | 143
